Test results as given in patent US6503727B1, “Process for the preparation of an antibiotic” (Gist-Brocades, B.V., priority 1995, dated 2003).

Experiment: Effect of PGA and CEX on the solubility of 7-ADCA (dissolved concentrations in synthetic mixtures)
Details: final pH 4.5, 2 hours, 20° C.

CC1=C(C(=O)O)N2C(=O)[C@@H](NC(=O)[C@H](N)c3ccccc3)[C@H]2SC1 [CEX, cephalexin, reference compound]
Dissolved concentrations (Example I Mixture 4: 3% (m/m) 7-ADCA, 0.4% (m/m) PC, 1.5% (m/m) PGA and 3.0% (m/m) CEX.H2O in water): 2.0 % (m/m)
Dissolved concentrations (Example I Mixture 5: 3% (m/m) 7-ADCA and 3.0% (m/m) CEX.H2O in water): 2.0 % (m/m)
